Assay results from PMC9900092.
Where a chain is given by its changes, count along the chain named. Names and notes keep the numbering of the source. Results are given in words; binding and its absence hold for the method and conditions named. Some entries that bind do so weakly or less than the wild type. For part of these data: Where a sequence is shown, tags or fusion partners need not be part of it.

B1: HypD (native) (protein, UniProt P24192 1-373)
chain: MRFVDEYRAPEQVMQLIEHLRERASHLSYTAERPLRIMEVCGGHTHAIFKFGLDQLLPENVEFIHGPGCPVCVLPMGRIDTCVEIASHPEVIFCTFGDAMRVPGKQGSLLQAKARGADVRIVYSPMDALKLAQENPTRKVVFFGLGFETTMPTTAITLQQAKARDVQNFYFFCQHITLIPTLRSLLEQPDNGIDAFLAPGHVSMVIGTDAYNFIASDFHRPLVVAGFEPLDLLQGVVMLVQQKIAAHSKVENQYRRVVPDAGNLLAQQAIADVFCVNGDSEWRGLGVIESSGVHLTPDYQRFDAEAHFRPAPQQVCDDPRARCGEVLTGKCKPHQCPLFGNTCNPQTAFGALMVSSEGACAAWYQYRQQESEA
B2: HypD variant G146A (protein, UniProt P24192 1-373)
chain: B1 chain with G146A
B3: HypD variant F147A (protein, UniProt P24192 1-373)
chain: B1 chain with F147A
B4: HypD variant E148A (protein, UniProt P24192 1-373)
chain: B1 chain with E148A
B5: HypD variant T149A (protein, UniProt P24192 1-373)
chain: B1 chain with T149A
B6: HypD variant T150A (protein, UniProt P24192 1-373)
chain: B1 chain with T150A
B7: HypD exchange variant C69A (protein, UniProt P24192 1-373)
chain: B1 chain with C69A
B8: HypD exchange variant C72A (protein, UniProt P24192 1-373)
chain: B1 chain with C72A
B9: HypD variant C323G (protein, UniProt P24192 1-373)
chain: B1 chain with C323G
B10: HypD variant C323D (protein, UniProt P24192 1-373)
chain: B1 chain with C323D
B11: HypD variant C323H (protein, UniProt P24192 1-373)
chain: B1 chain with C323H
B12: HypD variant C360G (protein, UniProt P24192 1-373)
chain: B1 chain with C360G
B13: HypD variant C360D (protein, UniProt P24192 1-373)
chain: B1 chain with C360D
B14: HypD variant C360H (protein, UniProt P24192 1-373)
chain: B1 chain with C360H

The binders below were run against T1, HybG with C‐terminal Strep‐TagII (E. coli) (UniProt P0AAM7) (assay: co-purification (Strep-tag affinity chromatography, then anion exchange chromatography); proteins co-expressed in E. coli; StrepII-tag only on the chaperone; Strep‐tactinXT Sepharose, then Q‐Sepharose Fast Flow (NaCl gradient 0.1–1 M in 50 mM Tris–HCl pH 8); anaerobic chamber, 4 °C; complexes analysed by SDS/PAGE and western blotting with anti‐HypD or anti‐HybG antiserum).
T1 sequence: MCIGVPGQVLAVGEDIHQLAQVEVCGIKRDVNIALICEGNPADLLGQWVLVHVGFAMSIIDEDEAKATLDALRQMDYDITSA

binding, binds:
B1
B2
B3
B4
B5
B6
B7
B8
B9
B10
B11
B12
B13
B14

Each binder was assayed against T2, HypC (E. coli) (UniProt P0AAM3) in the same assay as above.
T2 sequence: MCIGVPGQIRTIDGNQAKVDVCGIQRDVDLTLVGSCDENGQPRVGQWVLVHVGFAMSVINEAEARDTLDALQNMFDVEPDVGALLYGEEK

binding, binds:
B1
